Experimental data published in PMC4826223.
pKd: −log10 of the molar value. Construct, isoform or probe ends are uncertain for at least one entry. For some assays here: Negatives hold for the conditions tested. For some assays here: Where cells or extracts were used, other partners may take part.

By UniProt entry, the sequences of proteins in these tests, tags left out. Residues count along the entry.
UniProt Q8VIM0, 20-193, stated change not applied: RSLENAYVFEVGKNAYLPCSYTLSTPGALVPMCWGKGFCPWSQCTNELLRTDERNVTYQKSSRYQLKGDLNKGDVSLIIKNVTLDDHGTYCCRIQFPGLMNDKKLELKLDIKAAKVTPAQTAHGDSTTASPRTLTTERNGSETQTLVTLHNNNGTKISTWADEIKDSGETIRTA

Tests used:
[1] = target: mouse TIM3-Fc chimera (rmTIM-3-Fc) (mouse) (UniProt Q8VIM0); experiment: double-filter nitrocellulose filter binding; conditions: apparent Kd; 2'-fluoro-U and 2'-fluoro-C; Filter-binding buffer not detailed (cited methods); selection buffer 20 mM HEPES, 150 mM NaCl, 2 mM CaCl2, 0.01% BSA, 37 C, pH not stated; commercial protein; protein details: human IgG1 Fc fusion; label: 32P (spiked alpha-32P-ATP, cell binding)
[2] = target: mouse TIM3 extracellular domain on HEK-293-TIM3ext cells (mouse) (UniProt Q8VIM0); experiment: 32P cell binding; conditions: no binding to parental HEK-293; 2'-fluoro-U and 2'-fluoro-C; protein on the cell surface; label: 32P (spiked alpha-32P-ATP, cell binding)
human TIM3-Fc (human) = human TIM3-Fc (human) (UniProt Q8TDQ0); experiment: binding assay, method not stated (data not shown); conditions: 2'-fluoro-U and 2'-fluoro-C; recombinant protein; label: 32P (spiked alpha-32P-ATP, cell binding)

Row | Sequence | pKd [1] | binding result [2] | binding result (human TIM3-Fc (human))
1 | GCCACUAUGGUGUUGGAGCUAGCGG [TIM3-Apt1] | 7.66 | binds | no binding
2 | CUGGUAGUUCUCUGUGCGACUCCUA [TIM3-Apt2] | 7.40 | binds | 
